Laboratory results: PubChem BioAssay AID1224828 (NIAID, 2016)
The deposit covers about 17,000 reagents; shown is a part drawn at random. Of all reagents, 762 (4.5%) got an active call. 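Active calls include both raised and lowered p65 entry, mostly lowered; wells with fewer than 50 cells lack a z-score.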 The raw values are shown without normalisation. Reagent sequences are not shown.

Assay: 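Knock-downs that increase or decrease LPS-induced p65 nuclear translocation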 (primary screen)
Cell system: mouse RAW264.7 G9 macrophage reporter cells (GFP-p65, Tnf promoter-mCherry)
Knock-down reagent: siRNA pool against mouse genes, 100 nM
Time to read-out: 2 days siRNA transfection, then 40 min LPS before fixation
Challenge: LPS (Salmonella minnesota R595) at 10 ng/ml
Detection: 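Microscopy ratio of nuclear to perinuclear-ring GFP-p65 signal, scaled to the plate median; gene score is the average of two replicate robust z-scores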
Direction: p65 translocation robust z-score: higher = more nuclear NF-kappaB p65 after LPS than the plate median; nuclear/cytoplasmic p65 ratio: higher = more nuclear NF-kappaB p65
Active means: 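Called active when z exceeds 3.3 or falls under -1.56 (median of Tlr4 controls), giving activity score of at least 50; no calls for control wells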
Calls: active = hit (p65 shift raised or lowered); inactive = no clear change

| gene knocked down | p65 translocation robust z-score | nuclear/cytoplasmic p65 ratio, rep 1 | nuclear/cytoplasmic p65 ratio, rep 2 | low cell count flag | Call |
| --- | --- | --- | --- | --- | --- |
| Trip11 (thyroid hormone receptor interactor 11) | 2.23 | 1.9 | 2 | enough cells to score | inactive |
| Slc34a2 | – | 1.33 | 1.26 | fewer than 50 cells per well; well left out of scoring | inactive |
| Aanat (arylalkylamine N-acetyltransferase) | -1.23 | 1.17 | 1.41 | enough cells to score | inactive |
| Angpt4 (angiopoietin 4) | -0.06 | 1.65 | 1.4 | enough cells to score | inactive |
| Cdca5 (cell division cycle associated 5) | – | 0 | 1.81 | fewer than 50 cells per well; well left out of scoring | inactive |
| Zfp212 (Zinc finger protein 212) | – | 1.21 | 1.16 | fewer than 50 cells per well; well left out of scoring | inactive |
| Pkn2 (protein kinase N2) | 0.36 | 1.73 | 1.43 | enough cells to score | inactive |
| Sdhb (succinate dehydrogenase complex, subunit B, iron sulfur (Ip)) | -0.48 | 1.28 | 1.69 | enough cells to score | inactive |
| Atp10a (ATPase, class V, type 10A) | -0.74 | 1.33 | 1.58 | enough cells to score | inactive |
| Cxcl15 (C-X-C motif chemokine ligand 15) | -0.48 | 1.44 | 1.78 | enough cells to score | inactive |
| Sh2b3 (SH2B adaptor protein 3) | -0.26 | 1.77 | 1.43 | enough cells to score | inactive |
| Gk2 (glycerol kinase 2) | – | 1.79 | 1.53 | fewer than 50 cells per well; well left out of scoring | inactive |
| Itgav (integrin alpha V) | – | 1.33 | 1.28 | fewer than 50 cells per well; well left out of scoring | inactive |
| Ccn5 (cellular communication network factor 5) | 0.11 | 1.58 | 1.57 | enough cells to score | inactive |
| Txndc15 (thioredoxin domain containing 15) | -2.19 | 1.06 | 1.07 | enough cells to score | active |
| Ctss (cathepsin S) | 0.55 | 1.61 | 1.39 | enough cells to score | inactive |
| Il17c (interleukin 17C) | 0.4 | 1.56 | 1.41 | enough cells to score | inactive |
| Cep295 (centrosomal protein 295) | 1.84 | 1.52 | 1.71 | enough cells to score | inactive |
| Abl1 (Abl proto-oncogene 1, non-receptor tyrosine kinase) | 0.12 | 1.57 | 1.4 | enough cells to score | inactive |
| Tmem60 (transmembrane protein 60) | 0.59 | 1.71 | 1.89 | enough cells to score | inactive |

The list goes on, starting with the last 3 of the part before.
| gene knocked down | p65 translocation robust z-score | nuclear/cytoplasmic p65 ratio, rep 1 | nuclear/cytoplasmic p65 ratio, rep 2 | low cell count flag | Call |
| --- | --- | --- | --- | --- | --- |
| Cep295 (centrosomal protein 295) | 1.84 | 1.52 | 1.71 | enough cells to score | inactive |
| Abl1 (Abl proto-oncogene 1, non-receptor tyrosine kinase) | 0.12 | 1.57 | 1.4 | enough cells to score | inactive |
| Tmem60 (transmembrane protein 60) | 0.59 | 1.71 | 1.89 | enough cells to score | inactive |
| Pros1 (protein S (alpha)) | -0.52 | 1.41 | 1.35 | enough cells to score | inactive |
| Nol7 (nucleolar protein 7) | 0.4 | 1.89 | 1.49 | enough cells to score | inactive |
| 3110070M22Rik (RIKEN cDNA 3110070M22 gene) | – | 1.12 | 1.13 | fewer than 50 cells per well; well left out of scoring | inactive |
| Crip1 (cysteine-rich protein 1) | 0.91 | 1.62 | 2.03 | enough cells to score | inactive |
| Pycr2 (pyrroline-5-carboxylate reductase family, member 2) | -0.67 | 1.43 | 1.41 | enough cells to score | inactive |
| Slc2a2 | 0.68 | 1.61 | 1.61 | enough cells to score | inactive |
| Ppp1r9b (protein phosphatase 1, regulatory subunit 9B) | 0.79 | 1.64 | 1.48 | enough cells to score | inactive |
| Tspoap1 (TSPO associated protein 1) | 0.98 | 1.82 | 1.71 | enough cells to score | inactive |
| Mtpap (mitochondrial poly(A) polymerase) | 0.24 | 1.49 | 1.26 | enough cells to score | inactive |
| Prss50 (serine protease 50) | – | 1.3 | 1.26 | fewer than 50 cells per well; well left out of scoring | inactive |
| Olr1 (oxidized low density lipoprotein (lectin-like) receptor 1) | -1.06 | 1.33 | 1.25 | enough cells to score | inactive |
| Nfe2l3 (nuclear factor, erythroid derived 2, like 3) | -0.38 | 1.4 | 1.36 | enough cells to score | inactive |
| Or51d1 (olfactory receptor family 51 subfamily D member 1) | -1.26 | 1.19 | 1.12 | enough cells to score | inactive |
| Ccnt1 (cyclin T1) | -1.31 | 1.25 | 1.25 | enough cells to score | inactive |
| Sema3f | 0.89 | 1.57 | 1.79 | enough cells to score | inactive |
| Ubap2l (ubiquitin-associated protein 2-like) | -0.38 | 1.14 | 1.26 | enough cells to score | inactive |
| Ctnna2 (catenin alpha 2) | 1.01 | 1.72 | 1.4 | enough cells to score | inactive |
| Mgst1 (microsomal glutathione S-transferase 1) | -0.9 | 1.23 | 1.31 | enough cells to score | inactive |
| Xlr (X-linked lymphocyte-regulated) | 0.75 | 1.32 | 1.33 | enough cells to score | inactive |
| Siah1a (siah E3 ubiquitin protein ligase 1A) | -1.53 | 1.4 | 1.27 | enough cells to score | inactive |
